The list shows a part of the results.
Assays:
Assay in all cases: log2 fold change, soluble protein after heating vs DMSO (PISA); higher = thermal stabilisation; K562 cells, 10 uM, 30 min; active = over 0.2 and 3.5 SD of the protein, either way, in both replicates (recomputed)
[1] = compound: C1=CC(=C(C=C1Cl)C2=NC3=NC=CN=C3C(=N2)NC4=CC=NC=C4)F
Method in brief: (§1)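 Aliquots of K562 cells (2×10^6 cells/mL) treated with 10 μM compound for 30 min were heated for 3 min over 48°C-58°C. After pooling and extraction in PBS with 0.5% NP-40 at 4°C, soluble protein from a 21,000xg, 90 min spin was quantified by TMTpro 16plex LC-MS/MS with channel sums equalised. Thermal stability is expressed against control samples, from duplicates, as a log2 fold change.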

Amino acid sequences for entries named in this document (tags omitted). A change or cut given only in a name is not applied to a line headed by its entry.
UniProt Q96SL8: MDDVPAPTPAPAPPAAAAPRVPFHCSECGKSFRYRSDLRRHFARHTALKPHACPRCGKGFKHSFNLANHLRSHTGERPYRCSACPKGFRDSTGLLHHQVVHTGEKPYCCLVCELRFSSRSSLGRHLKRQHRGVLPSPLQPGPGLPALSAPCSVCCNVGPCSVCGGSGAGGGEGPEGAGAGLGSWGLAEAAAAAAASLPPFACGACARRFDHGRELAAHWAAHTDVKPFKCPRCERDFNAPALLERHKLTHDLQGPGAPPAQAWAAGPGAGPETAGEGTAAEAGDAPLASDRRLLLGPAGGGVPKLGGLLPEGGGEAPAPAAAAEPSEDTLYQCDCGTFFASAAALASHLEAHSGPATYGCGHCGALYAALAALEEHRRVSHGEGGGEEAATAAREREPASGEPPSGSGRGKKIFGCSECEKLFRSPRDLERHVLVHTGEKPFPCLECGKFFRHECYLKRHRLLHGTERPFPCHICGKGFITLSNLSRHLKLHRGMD
UniProt Q86XK2: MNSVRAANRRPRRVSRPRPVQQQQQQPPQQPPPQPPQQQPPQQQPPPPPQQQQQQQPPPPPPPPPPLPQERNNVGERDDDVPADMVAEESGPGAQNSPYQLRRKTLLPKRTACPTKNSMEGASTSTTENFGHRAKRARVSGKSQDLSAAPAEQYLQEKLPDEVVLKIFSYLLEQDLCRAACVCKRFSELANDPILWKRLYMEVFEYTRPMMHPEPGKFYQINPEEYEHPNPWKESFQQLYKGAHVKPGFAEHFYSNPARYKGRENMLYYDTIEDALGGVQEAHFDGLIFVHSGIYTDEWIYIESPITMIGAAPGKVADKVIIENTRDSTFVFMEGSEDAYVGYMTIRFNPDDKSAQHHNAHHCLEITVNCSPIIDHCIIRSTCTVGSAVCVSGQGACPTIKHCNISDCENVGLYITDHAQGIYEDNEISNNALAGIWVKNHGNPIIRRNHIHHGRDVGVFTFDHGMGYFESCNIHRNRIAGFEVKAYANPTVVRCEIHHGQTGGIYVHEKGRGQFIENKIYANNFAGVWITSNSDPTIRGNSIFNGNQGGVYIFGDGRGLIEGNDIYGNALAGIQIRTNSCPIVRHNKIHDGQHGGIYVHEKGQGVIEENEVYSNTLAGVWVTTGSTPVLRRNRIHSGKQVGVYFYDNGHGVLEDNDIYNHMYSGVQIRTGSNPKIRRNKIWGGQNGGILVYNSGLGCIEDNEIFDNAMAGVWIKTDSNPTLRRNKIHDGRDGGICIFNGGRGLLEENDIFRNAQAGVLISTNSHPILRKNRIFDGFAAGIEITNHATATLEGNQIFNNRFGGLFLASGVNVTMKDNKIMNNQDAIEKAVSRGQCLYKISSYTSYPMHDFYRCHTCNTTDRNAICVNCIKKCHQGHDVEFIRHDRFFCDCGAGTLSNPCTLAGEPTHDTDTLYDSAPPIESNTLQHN
UniProt Q96RU3: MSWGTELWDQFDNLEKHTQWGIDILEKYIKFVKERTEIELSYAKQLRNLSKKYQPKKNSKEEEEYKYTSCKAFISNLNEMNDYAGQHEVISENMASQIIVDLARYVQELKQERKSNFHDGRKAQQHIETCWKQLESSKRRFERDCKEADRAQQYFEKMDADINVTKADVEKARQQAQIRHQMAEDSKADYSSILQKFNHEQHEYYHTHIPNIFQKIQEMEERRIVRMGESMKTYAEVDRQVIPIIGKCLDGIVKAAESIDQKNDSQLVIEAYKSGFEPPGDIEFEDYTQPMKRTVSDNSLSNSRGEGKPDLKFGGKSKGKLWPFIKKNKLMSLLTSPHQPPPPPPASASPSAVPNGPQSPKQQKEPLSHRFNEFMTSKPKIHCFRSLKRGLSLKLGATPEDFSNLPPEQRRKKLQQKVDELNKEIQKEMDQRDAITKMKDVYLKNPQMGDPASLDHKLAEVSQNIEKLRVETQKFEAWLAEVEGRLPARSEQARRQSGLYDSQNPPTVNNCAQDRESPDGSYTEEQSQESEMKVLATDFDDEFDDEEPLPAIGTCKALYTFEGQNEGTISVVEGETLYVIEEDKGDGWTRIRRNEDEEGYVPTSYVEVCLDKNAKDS
UniProt Q13045: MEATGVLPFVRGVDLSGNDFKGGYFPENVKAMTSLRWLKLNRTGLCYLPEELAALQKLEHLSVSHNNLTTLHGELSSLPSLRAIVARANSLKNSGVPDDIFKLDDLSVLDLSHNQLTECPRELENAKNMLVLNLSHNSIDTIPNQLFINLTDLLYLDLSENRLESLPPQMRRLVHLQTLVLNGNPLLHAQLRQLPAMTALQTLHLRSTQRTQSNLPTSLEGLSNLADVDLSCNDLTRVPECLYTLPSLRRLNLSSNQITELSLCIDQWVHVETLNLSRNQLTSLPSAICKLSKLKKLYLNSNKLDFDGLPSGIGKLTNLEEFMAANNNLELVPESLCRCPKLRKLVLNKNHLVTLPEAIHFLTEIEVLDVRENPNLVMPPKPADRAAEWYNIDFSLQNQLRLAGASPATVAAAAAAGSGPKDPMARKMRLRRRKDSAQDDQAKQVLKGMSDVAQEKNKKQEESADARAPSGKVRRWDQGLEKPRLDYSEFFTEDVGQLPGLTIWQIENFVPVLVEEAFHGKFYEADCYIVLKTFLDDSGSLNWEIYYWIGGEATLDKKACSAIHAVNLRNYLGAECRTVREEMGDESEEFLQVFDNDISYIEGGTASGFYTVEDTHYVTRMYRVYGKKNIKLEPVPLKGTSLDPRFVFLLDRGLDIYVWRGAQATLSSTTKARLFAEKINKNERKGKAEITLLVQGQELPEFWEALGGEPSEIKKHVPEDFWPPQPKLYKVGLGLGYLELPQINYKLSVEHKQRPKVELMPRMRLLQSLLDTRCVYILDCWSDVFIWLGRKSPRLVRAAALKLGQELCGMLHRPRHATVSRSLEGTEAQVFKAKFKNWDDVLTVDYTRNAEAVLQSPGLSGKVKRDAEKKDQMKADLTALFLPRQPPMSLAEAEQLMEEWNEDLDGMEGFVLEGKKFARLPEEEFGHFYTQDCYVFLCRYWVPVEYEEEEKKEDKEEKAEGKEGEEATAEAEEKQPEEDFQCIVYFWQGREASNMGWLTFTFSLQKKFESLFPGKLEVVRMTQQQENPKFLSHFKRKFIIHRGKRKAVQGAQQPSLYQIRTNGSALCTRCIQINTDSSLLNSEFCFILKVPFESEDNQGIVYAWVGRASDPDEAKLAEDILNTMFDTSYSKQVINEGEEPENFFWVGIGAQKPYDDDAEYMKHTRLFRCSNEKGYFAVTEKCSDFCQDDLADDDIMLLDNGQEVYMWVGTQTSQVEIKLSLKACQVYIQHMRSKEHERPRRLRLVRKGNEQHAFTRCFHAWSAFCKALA
UniProt Q96IV6: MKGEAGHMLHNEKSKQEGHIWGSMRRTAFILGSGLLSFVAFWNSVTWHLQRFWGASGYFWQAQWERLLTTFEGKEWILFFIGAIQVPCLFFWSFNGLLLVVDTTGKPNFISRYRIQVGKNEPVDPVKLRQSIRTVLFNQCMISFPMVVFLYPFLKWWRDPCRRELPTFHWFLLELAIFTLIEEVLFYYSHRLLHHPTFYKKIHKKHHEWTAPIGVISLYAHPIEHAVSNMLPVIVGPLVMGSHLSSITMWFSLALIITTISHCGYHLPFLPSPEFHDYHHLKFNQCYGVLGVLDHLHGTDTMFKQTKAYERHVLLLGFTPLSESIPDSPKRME
UniProt Q8N0W7: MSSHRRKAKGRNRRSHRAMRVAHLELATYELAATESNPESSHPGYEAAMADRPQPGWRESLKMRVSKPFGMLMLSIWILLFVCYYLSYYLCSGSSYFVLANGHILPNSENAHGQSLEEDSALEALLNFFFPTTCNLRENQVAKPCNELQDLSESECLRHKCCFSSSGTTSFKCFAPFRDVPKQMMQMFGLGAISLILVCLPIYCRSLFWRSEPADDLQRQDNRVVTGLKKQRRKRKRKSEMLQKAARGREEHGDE
UniProt Q17RN3: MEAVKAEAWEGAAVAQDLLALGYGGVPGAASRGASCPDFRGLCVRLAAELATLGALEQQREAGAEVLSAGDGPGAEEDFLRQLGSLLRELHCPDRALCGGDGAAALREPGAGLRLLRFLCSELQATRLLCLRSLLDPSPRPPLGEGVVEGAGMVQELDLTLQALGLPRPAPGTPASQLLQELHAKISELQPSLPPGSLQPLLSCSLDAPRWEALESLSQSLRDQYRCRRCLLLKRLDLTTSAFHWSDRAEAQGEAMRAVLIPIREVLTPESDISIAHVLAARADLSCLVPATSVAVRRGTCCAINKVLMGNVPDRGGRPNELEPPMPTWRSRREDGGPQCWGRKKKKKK
UniProt Q9UHY8: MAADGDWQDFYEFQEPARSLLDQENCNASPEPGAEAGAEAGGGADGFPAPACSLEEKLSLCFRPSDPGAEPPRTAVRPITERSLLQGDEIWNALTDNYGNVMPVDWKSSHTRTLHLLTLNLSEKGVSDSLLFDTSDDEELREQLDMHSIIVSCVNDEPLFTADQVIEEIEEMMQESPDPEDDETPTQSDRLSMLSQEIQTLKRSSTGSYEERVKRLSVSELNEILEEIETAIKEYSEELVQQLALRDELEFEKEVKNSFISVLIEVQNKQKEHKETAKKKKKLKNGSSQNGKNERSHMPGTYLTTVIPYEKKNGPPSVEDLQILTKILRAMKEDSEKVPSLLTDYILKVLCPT
UniProt Q8N6M3: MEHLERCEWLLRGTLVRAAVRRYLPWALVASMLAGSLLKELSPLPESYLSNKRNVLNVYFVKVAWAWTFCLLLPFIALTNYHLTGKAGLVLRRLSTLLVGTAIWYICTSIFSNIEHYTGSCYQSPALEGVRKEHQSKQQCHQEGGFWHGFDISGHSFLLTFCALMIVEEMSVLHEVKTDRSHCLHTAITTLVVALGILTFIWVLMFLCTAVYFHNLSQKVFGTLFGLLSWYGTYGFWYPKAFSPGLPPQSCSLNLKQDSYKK
UniProt Q96CD0: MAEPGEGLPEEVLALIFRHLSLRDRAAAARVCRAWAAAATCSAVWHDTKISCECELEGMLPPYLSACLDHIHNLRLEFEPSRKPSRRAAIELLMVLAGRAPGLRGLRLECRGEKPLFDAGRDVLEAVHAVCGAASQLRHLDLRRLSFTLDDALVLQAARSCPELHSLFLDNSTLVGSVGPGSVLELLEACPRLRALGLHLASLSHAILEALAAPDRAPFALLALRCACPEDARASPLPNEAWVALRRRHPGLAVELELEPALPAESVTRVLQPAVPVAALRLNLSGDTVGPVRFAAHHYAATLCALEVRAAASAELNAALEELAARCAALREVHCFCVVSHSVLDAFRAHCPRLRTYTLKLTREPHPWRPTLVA
UniProt Q9UKA2: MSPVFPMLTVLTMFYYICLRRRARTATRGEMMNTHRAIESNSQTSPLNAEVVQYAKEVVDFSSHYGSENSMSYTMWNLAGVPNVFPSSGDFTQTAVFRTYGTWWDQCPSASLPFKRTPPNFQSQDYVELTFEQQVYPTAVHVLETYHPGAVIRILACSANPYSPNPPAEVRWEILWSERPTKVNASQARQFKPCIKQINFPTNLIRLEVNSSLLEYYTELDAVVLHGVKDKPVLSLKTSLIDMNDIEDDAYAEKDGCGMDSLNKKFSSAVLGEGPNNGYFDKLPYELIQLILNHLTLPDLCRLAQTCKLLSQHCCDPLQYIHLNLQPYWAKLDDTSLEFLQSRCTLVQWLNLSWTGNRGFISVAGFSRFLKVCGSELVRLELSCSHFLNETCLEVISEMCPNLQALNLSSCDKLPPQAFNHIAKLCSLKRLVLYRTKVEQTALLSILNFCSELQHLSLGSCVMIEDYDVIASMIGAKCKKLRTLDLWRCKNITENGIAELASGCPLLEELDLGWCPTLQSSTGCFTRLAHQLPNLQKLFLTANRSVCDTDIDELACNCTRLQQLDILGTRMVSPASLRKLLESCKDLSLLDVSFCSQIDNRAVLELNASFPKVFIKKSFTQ
UniProt Q14153: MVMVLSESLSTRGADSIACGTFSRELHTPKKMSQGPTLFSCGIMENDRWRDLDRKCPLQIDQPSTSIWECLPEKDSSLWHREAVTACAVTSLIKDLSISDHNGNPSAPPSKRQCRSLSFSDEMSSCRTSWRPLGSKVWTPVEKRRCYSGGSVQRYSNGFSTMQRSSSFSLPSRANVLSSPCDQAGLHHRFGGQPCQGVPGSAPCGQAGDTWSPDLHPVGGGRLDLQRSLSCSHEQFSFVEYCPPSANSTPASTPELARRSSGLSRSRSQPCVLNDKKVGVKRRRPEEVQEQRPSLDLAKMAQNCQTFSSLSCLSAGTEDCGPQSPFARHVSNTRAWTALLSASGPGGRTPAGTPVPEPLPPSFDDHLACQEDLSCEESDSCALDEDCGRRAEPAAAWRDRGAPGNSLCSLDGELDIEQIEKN
UniProt Q96GI7: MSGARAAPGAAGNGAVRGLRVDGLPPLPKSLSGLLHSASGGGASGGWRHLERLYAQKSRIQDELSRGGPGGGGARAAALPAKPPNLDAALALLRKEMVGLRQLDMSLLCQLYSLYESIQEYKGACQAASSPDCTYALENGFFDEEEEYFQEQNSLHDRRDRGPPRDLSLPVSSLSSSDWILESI

[2] = compound: C1CCN(C1)C(=O)NC2=CC=CC(=C2)NC3=NC=C(C(=N3)NCCC4=CN=CN4)Br
Method in brief: as §1

[3] = compound: C1CN(CCC1(CC2=CC=C(C=C2)Cl)N)C3=NC=NC4=C3C=CN4
Method in brief: as §1

[4] = compound: C#Cc1cccc(Nc2ncnc3cc(OCCOC)c(OCCOC)cc23)c1 [erlotinib]
Method in brief: as §1

[5] = compound: C1=CC(=CC=C1C2=NC3=C(N2)C=C(C=C3)C(=O)N)OC4=CC=C(C=C4)Cl
Method in brief: as §1

[6] = compound: C/C(=N\NC(=O)C1=CC(=CC=C1)S(=O)(=O)N2CCOCC2)/C3=C(C=CC(=C3)Cl)O
Method in brief: as §1

[7] = compound: C1=CC2=C(C=CC(=C2)/C=C\3/C(=O)NC(=NCC4=CC=CS4)S3)N=C1
Method in brief: as §1

[8] = compound: C1=CC=C2C(=C1)C3=NNC4=CC=CC(=C43)C2=O
Method in brief: as §1

[9] = compound: C1=CC2=NC=CN=C2C=C1/C=C/3\C(=O)NC(=O)S3
Method in brief: as §1

[10] = compound: C1=CC=C(C=C1)C2=NC(=C(N2)C3=CC=NC=C3)C4=CC(=C(C=C4)Cl)O
Method in brief: as §1

Measured: log2 fold change

FAM83G (UniProt A6ND36)
inactive: [1] 0.263 | [2] 0.005 | [3] 0.036

FIZ1 (UniProt Q96SL8)
inactive: [1] -0.272

FBXO11 isoform 5 (UniProt Q86XK2)
inactive: [4] 0 | [1] -0.19 | [5] 0.261 | [2] 0.052 | [3] -0.03

FMOD (UniProt Q06828)
inactive: [6] 0.017 | [7] 0.202 | [8] -0.064

FNBP1 (UniProt Q96RU3)
inactive: [6] 0.103 | [7] 0.046 | [8] -0.118 | [2] -0.378 | [3] 0.064

FNDC3A (UniProt Q9Y2H6)
inactive: [2] 0.182 | [3] 0.146

FNIP1 (UniProt Q8TF40)
inactive: [4] 0.06 | [1] 0.097 | [5] -0.118 | [9] 0.014 | [10] -0.096 | [2] 0.073 | [3] -0.07

FLII isoform 2 (UniProt Q13045)
inactive: [6] 0.043 | [1] 0.131 | [7] -0.096 | [10] 0.101 | [8] 0.032 | [2] -0.333 | [3] -0.088

FAXDC2 (UniProt Q96IV6)
inactive: [9] 0.064

FMR1NB (UniProt Q8N0W7)
inactive: [6] -0.069 | [1] -0.3 | [7] 0.031 | [8] -0.095

FHAD1 isoform 3 (UniProt B1AJZ9)
inactive: [6] -0.176 | [7] 0.245 | [9] 0.153 | [10] 0.196 | [8] -0.019 | [2] 0.151 | [3] 0.135

FER (UniProt P16591)
inactive: [4] 0.925 | [6] 0.301 | [5] -0.657 | [7] -0.138 | [8] -0.982

FAM98C (UniProt Q17RN3)
inactive: [6] -0.078 | [7] -0.15 | [8] 0.103

FBXO33 (UniProt Q7Z6M2)
inactive: [1] 0.048 | [9] 0.051

FBF1 isoform 6 (UniProt Q8TES7)
inactive: [6] -0.068 | [7] 0.076 | [8] 0.095

FEZ2 isoform 2 (UniProt Q9UHY8)
inactive: [6] -0.073 | [7] 0.049 | [9] 0.176 | [10] 0.056 | [8] 0.049

FBXO9 (UniProt Q9UK97)
inactive: [4] -0.017 | [5] 0.137 | [9] -0.022 | [10] 0.03 | [2] -0.098 | [3] -0.037

FITM2 (UniProt Q8N6M3)
inactive: [4] -0.016 | [5] 0.09 | [9] -0.011

FAT4 (UniProt Q6V0I7)
inactive: [6] -0.057 | [7] 0.142 | [10] -0.292 | [8] -0.055 | [2] 0.068 | [3] 0.033

FMR1 (UniProt Q06787)
inactive: [4] -0.301 | [5] 0.154 | [10] -0.121

Reprinted from the entries so far (8 entries):
FLII isoform 2 (UniProt Q13045)
inactive: [6] 0.043 | [1] 0.131 | [7] -0.096 | [10] 0.101 | [8] 0.032 | [2] -0.333 | [3] -0.088

FAXDC2 (UniProt Q96IV6)
inactive: [9] 0.064

FMR1NB (UniProt Q8N0W7)
inactive: [6] -0.069 | [1] -0.3 | [7] 0.031 | [8] -0.095

FHAD1 isoform 3 (UniProt B1AJZ9)
inactive: [6] -0.176 | [7] 0.245 | [9] 0.153 | [10] 0.196 | [8] -0.019 | [2] 0.151 | [3] 0.135

FER (UniProt P16591)
inactive: [4] 0.925 | [6] 0.301 | [5] -0.657 | [7] -0.138 | [8] -0.982

FAM98C (UniProt Q17RN3)
inactive: [6] -0.078 | [7] -0.15 | [8] 0.103

FBXO33 (UniProt Q7Z6M2)
inactive: [1] 0.048 | [9] 0.051

FBF1 isoform 6 (UniProt Q8TES7)
inactive: [6] -0.068 | [7] 0.076 | [8] 0.095

Later entries:

FGL2 (UniProt Q14314)
inactive: [4] -0.051 | [5] -0.08

FBXL8 (UniProt Q96CD0)
inactive: [4] -0.049 | [1] 0.335 | [5] -0.107 | [9] -0.11 | [2] -0.031 | [3] -0.051

FAT2 (UniProt Q9NYQ8)
inactive: [4] 0.115 | [1] 0.26 | [5] -0.098 | [9] 0.096 | [10] 0 | [2] -0.166 | [3] 0.186

FAT3 isoform 1 (UniProt Q8TDW7)
inactive: [4] -0.004 | [1] -0.039 | [5] -0.026 | [9] -0.104 | [10] 0.03

FARP2 (UniProt O94887)
inactive: [6] -0.004 | [7] 0.111 | [8] 0.036 | [2] 0.18 | [3] 0.019

FIG4 (UniProt Q92562)
inactive: [4] -0.073 | [5] -0.068

FBXL4 (UniProt Q9UKA2)
inactive: [1] -0.513

FAM53B (UniProt Q14153)
inactive: [4] 0.03 | [1] 0.002 | [5] -0.089 | [10] -0.05

FERMT2 isoform 3 (UniProt Q96AC1)
inactive: [4] -0.215 | [1] 0.176 | [5] 0.052 | [9] 0.051 | [10] 0.008 | [2] -0.158 | [3] 0.061

FAM89A (UniProt Q96GI7)
inactive: [4] -0.133 | [5] 0.024 | [9] -0.018 | [10] 0.015

Reference: the supplement of paper PMC10849652
